Values from PubChem BioAssay AID652259 (Drosophila RNAi Screening Center, 2013).
Screen: 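Identify new Wingless signalling regulators in fly cells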 (primary screen). Cell system: Drosophila clone 8 imaginal disc epithelial cells. Reagents: long dsRNA against Drosophila genes. Conditions: pathway stimulated by co-transfected Wingless expression plasmid. Detection: 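Dual luciferase reads per well after Wingless plasmid stimulation: reporter firefly light and Renilla control light; activity is firefly divided by Renilla, a ratio not deposited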. Reading the numbers: firefly reporter light: higher = more Wg reporter light, before normalisation; Renilla control light: higher = more transfected or surviving cells. Hit rule: 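a knock-down is a candidate when at least two out of four statistical tests show it departing from its plate mean; one test alone signals a weak candidate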. Meaning of the calls: active = candidate regulator (raises or lowers reporter); inactive = not a candidate.
The screen tested about 22,000 reagents; this is an unselected part of those with a known target gene and a result. Of all reagents, 233 (1.1%) got an active call. 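Light values are raw, unnormalised plate reads; the ratio scores behind the reporter calls were not deposited.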 Reagents against one gene are numbered here. Not given: the amount of reagent, the time to read-out, the dose of the treatment.

| gene | reagent no. | reporter change call, replicate 1 | firefly reporter light, replicate 1 | firefly reporter light, replicate 2 | Renilla control light, replicate 1 | Renilla control light, replicate 2 | activity call |
| --- | --- | --- | --- | --- | --- | --- | --- |
| lcs (la costa) | 1 | – | 16897 | – | 9811 | – | inactive |
| ATPsynF (ATP synthase, subunit F) | 1 | – | 18421 | – | 3719 | – | inactive |
| HP4 (Heterochromatin protein 4) | 1 | – | 5366 | – | 2147 | – | inactive |
| Cpr47Ea (Cuticular protein 47Ea) | 1 | – | 9091 | – | 3824 | – | inactive |
| CG14624 | 1 | – | 19009 | – | 7765 | – | inactive |
| IFT52 (Intraflagellar transport 52) | 1 | – | 1707 | 5046 | 731 | 2320 | inactive |
| CG14931 | 1 | – | 3680 | 5952 | 1767 | 2965 | inactive |
| CG18596 | 1 | – | 2432 | 5205 | 1413 | 1785 | inactive |
| Targ1 (Terminal ADP-ribose protein glycohydrolase 1) | 1 | – | 21585 | – | 5533 | – | inactive |
| Ae2 (Anion exchanger 2) | 1 | – | 4464 | – | 1116 | – | inactive |
| Ae2 (Anion exchanger 2) | 2 | – | 7346 | – | 2387 | – | inactive |
| CG1635 | 1 | – | 1984 | 6722 | 818 | 2112 | inactive |
| CG17683 | 1 | – | 10032 | – | 6986 | – | inactive |
| CG14324 | 1 | – | 13910 | – | 4160 | – | inactive |
| CG13082 | 1 | – | 1543 | 3121 | 460 | 1635 | inactive |
| CG3223 | 1 | – | 13880 | – | 3389 | – | inactive |
| CG4022 | 1 | – | 3029 | – | 1789 | – | inactive |
| Serinc (Serine incorporator) | 1 | – | 3003 | – | 823 | – | inactive |
| Mtk (Metchnikowin) | 1 | – | 9016 | – | 2672 | – | inactive |
| Pex1 (Peroxin 1) | 1 | – | 4787 | – | 2021 | – | inactive |
| CR34254 (pseudo) | 1 | – | 2793 | – | 1266 | – | inactive |
| Sec10 (Secretory 10) | 1 | – | 2818 | 5923 | 988 | 1367 | inactive |
| CG34199 | 1 | – | 15890 | – | 9399 | – | inactive |
| kkv (krotzkopf verkehrt) | 1 | – | 6597 | – | 2472 | – | inactive |
| CG12155 | 1 | – | 1808 | 8496 | 746 | 2205 | inactive |
| lncRNA:CR34024 (long non-coding RNA:CR34024) | 1 | – | 2778 | – | 1274 | – | inactive |
| CG42369 | 1 | – | 2749 | 4215 | 917 | 688 | inactive |
| xit (xiantuan) | 1 | – | 2469 | 11221 | 592 | 3654 | inactive |
| E(Pc) (Enhancer of Polycomb) | 1 | Wg reporter activity raised | 27911 | – | 12868 | – | inactive |
| E(Pc) (Enhancer of Polycomb) | 2 | Wg reporter activity raised | 20925 | – | 1936 | – | active |
| CG33792 | 1 | – | 21618 | – | 19657 | – | inactive |
| CG12620 | 1 | – | 2118 | 6865 | 912 | 3707 | inactive |
| l(2)09851 (lethal (2) 09851) | 1 | – | 4042 | 8400 | 962 | 3139 | inactive |
| Zip71B (Zinc/iron regulated transporter-related protein 71B) | 1 | – | 4884 | – | 1804 | – | inactive |
| CG42383 | 1 | – | 3.73e5 | 4.14e5 | 2.00e5 | 1.39e5 | inactive |
| CG11449 | 1 | – | 16106 | – | 3975 | – | inactive |
| CG18234 | 1 | – | 8064 | – | 3147 | – | inactive |
| CG8475 | 1 | – | 8298 | – | 4915 | – | inactive |
| CG8757 | 1 | – | 4610 | – | 2125 | – | inactive |
| Sgs5bis | 1 | – | 16599 | – | 5498 | – | inactive |
| Sr-CIII (Scavenger receptor class C, type III) | 1 | – | 5.00e5 | 5.58e5 | 2.27e5 | 2.20e5 | inactive |
| poe (purity of essence) | 1 | Wg reporter activity lowered | 5488 | – | 4519 | – | active |
| SmydA-5 (SET and MYND domain containing, arthropod-specific, member 5) | 1 | – | 3306 | 6769 | 781 | 2742 | inactive |
| Atg18b (Autophagy-related 18b) | 1 | – | 7004 | – | 1547 | – | inactive |
| wg (wingless) | 1 | Wg reporter activity lowered | 857 | 2906 | 786 | 3148 | active |
| AP-1sigma (Adaptor Protein complex 1, sigma subunit) | 1 | – | 3766 | 9907 | 1779 | 3408 | inactive |
| CG31441 | 1 | – | 14245 | – | 4275 | – | inactive |
| CG12481 | 1 | – | 9223 | – | 7060 | – | inactive |
| CG7202 | 1 | – | 21096 | – | 6715 | – | inactive |

7 consecutive entries from above:
| gene | reagent no. | reporter change call, replicate 1 | firefly reporter light, replicate 1 | firefly reporter light, replicate 2 | Renilla control light, replicate 1 | Renilla control light, replicate 2 | activity call |
| --- | --- | --- | --- | --- | --- | --- | --- |
| Zip71B (Zinc/iron regulated transporter-related protein 71B) | 1 | – | 4884 | – | 1804 | – | inactive |
| CG42383 | 1 | – | 3.73e5 | 4.14e5 | 2.00e5 | 1.39e5 | inactive |
| CG11449 | 1 | – | 16106 | – | 3975 | – | inactive |
| CG18234 | 1 | – | 8064 | – | 3147 | – | inactive |
| CG8475 | 1 | – | 8298 | – | 4915 | – | inactive |
| CG8757 | 1 | – | 4610 | – | 2125 | – | inactive |
| Sgs5bis | 1 | – | 16599 | – | 5498 | – | inactive |
